{"source": "paper doi:10.1101/2022.06.10.495687", "key": {"[1]": {"tested_on": "GhHSFA6B-D (Gossypium hirsutum)", "experiment": "competition with a labelled probe", "conditions": "200x excess; protein translated in vitro"}, "[2]": {"tested_on": "GhHSFA6B-D (Gossypium hirsutum)", "experiment": "EMSA", "conditions": "protein translated in vitro; label: IRD700"}, "[3]": {"tested_on": "GhDREB2A-A (Gossypium hirsutum)", "experiment": "competition with a labelled probe", "conditions": "200x excess; protein translated in vitro"}, "[4]": {"tested_on": "GhDREB2A-A (Gossypium hirsutum)", "experiment": "EMSA", "conditions": "protein translated in vitro; label: IRD700"}}, "note": "The exact form of at least one protein or probe is not confirmed."}
{"sequence": "GTCAATAGATCAAGATAAGTTGTTTCCAGAATATTCCCCATGTTGACTTC (double strand) [IPS probe unlabeled (Probe-4 control, reference C)]", "values": [{"measurement": "binding result", "setting": "[1]", "result": "binds"}]}
{"sequence": "GTCAATAGATCAAGATAAGTTGTTTCCAGAATATTCCCCATGTTGACTTC (double strand) [IPS-HSF probe (Probe-4, reference C)]", "values": [{"measurement": "binding result", "setting": "[2]", "result": "binds"}]}
{"sequence": "GTCAATAGATCAAGATAAGTTGTTTCCAGAATATTCCCTATGTTGACTTC (double strand) [Mutated-IPS3 (SNP:T)]", "values": [{"measurement": "binding result", "setting": "[1]", "result": "binds"}]}
{"sequence": "TCTCATGCAGCCAATGTCGTTGCTCCGCCACCGACTTAAATAATGGCACT (double strand) [ABP-DREB2A competitor (Competitor-3, GhABP-D)]", "values": [{"measurement": "binding result", "setting": "[3]", "result": "binds"}]}
{"sequence": "TCTCATGCAGCCAATGTTGTTGCTCCGCCACCGACTTAAATAATGGCATT (double strand) [ABP-DREB2A probe (Probe-3)]", "values": [{"measurement": "binding result", "setting": "[4]", "result": "binds"}]}
{"sequence": "TCTCATGCAGCCAATGTTGTTGCTCCGCCACCGACTTAAATAATGGCATT (double strand) [ABP-DREB2A probe unlabeled (Probe-3 control)]", "values": [{"measurement": "binding result", "setting": "[3]", "result": "binds"}]}
{"sequence": "TTTTGGATTATTCTTGAAGCTTTCTGGAAAATTCAAGCTTGGATTCATGT (double strand) [ABP-HSFA6B competitor (Competitor-2, GhABP-D)]", "values": [{"measurement": "binding result", "setting": "[1]", "result": "binds"}]}
{"sequence": "TTTTGGGGTATTCTTGAAGCTTTCTGGAAAATTCAAGCTCGATTCATGT (double strand) [ABP-HSFA6B probe (Probe-2, site 2)]", "values": [{"measurement": "binding result", "setting": "[2]", "result": "binds"}]}
{"sequence": "TTTTGGGGTATTCTTGAAGCTTTCTGGAAAATTCAAGCTCGATTCATGT (double strand) [ABP-HSFA6B probe unlabeled (Probe-2 control)]", "values": [{"measurement": "binding result", "setting": "[1]", "result": "binds"}]}
